Here are results for 1 substance from PMC6451337, “The Toxoplasma gondii dense granule protein TgGRA3 interacts with host Golgi and dysregulates anterograde transport” (Biology Open, 2019).

The assay addresses GRA3_HA-Δ110-128 (Toxoplasma gondii) (UniProt B6KEU8). Briefly: native gel or EMSA; proteins cleaved from glutathione-Sepharose beads with PreScission protease in 25 mM Tris pH 8, 1 mM DTT, 0.5 mM PMSF, 1 mM EDTA; 10% Tris-glycine native gel, unheated against heated; Coomassie Blue stain and Western blot; both purified.

No constants are given. Whether binding was seen depends on the method and setting.

“GRA3_HA-Δ110-128 (from UniProt B6KEU8 43-161) (domain or fragment)”: the binding entry was “no binding”.
